Measurements reported in PubChem BioAssay AID445 (National Center for Advancing Translational Sciences (NCATS), 2006).
This is one part of the list. Shown are side measurements of this screen, not its main read-out; they come without a call. The list favours compounds with an active or inconclusive main result. The note in brackets gives the kind of curve behind each potency; many fits are weak.

Assay: IkB Signaling
Details: ABC-DLBCL IkBa-CBG/CBR dual luciferase ratio (green luciferase fused to IkBa over red control in OCI-Ly3 lymphoma cells), 4 h
Procedure, shortened: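 In this assay, an IκBα–CBG68 fusion accumulates when IKK-driven degradation is blocked; native CBR normalizes for cell number. OCI-Ly3 cells were treated 4 h with compound and doxycycline, then green and red light read after Chroma-Glo addition.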

[1] = measured here: control luc red channel unless noted
[2] = measured here: IkB-luc green channel
[3] = measured here: control luc red channel

With `Cc1c(C(=O)NCc2ccc3c(c2)OCO3)oc2ccc(S(=O)(=O)N3CCC(C)CC3)cc12` the AC50 [1] was 3.16 µM [falling, full curve, poor fit].
For `COc1ccc(C(CNC(=O)c2oc3cc(C)c(C)cc3c2C)N2CCCCC2)cc1` (stereo not given), the AC50 [1] was 25.1 µM [falling, single point].
In the case of `Cc1ccc(Nc2nc(N)nc(CSc3nc4ccccc4s3)n2)cc1`, the AC50 [1] is reported as 31.6 µM [falling, single point].
In the case of `Cc1c2cnn(CC(=O)NCc3ccc(Cl)cc3)c(=O)c2c(C)n1Cc1ccc(F)cc1`, the AC50 [1] is reported as 10 µM [falling, partial curve].
With `Cc1nc(CNS(=O)(=O)c2ccc(Oc3ccccc3)cc2)cs1` the AC50 [1] was 2.51 µM [falling, full curve].
With `Cc1ccccc1Nc1nn2c(=O)c3ccc(C(=O)NCc4cccs4)cc3nc2s1` the AC50 [1] was 0.316 µM [falling, full curve, poor fit].
For `COC(=O)c1ccc(OC)c(CSc2nnc(COc3ccccc3)o2)c1`, the AC50 [1] was 39.8 µM [falling, single point].
In the case of `COc1ccc(OC)c(N(CC(=O)Nc2ccc3c(c2)OCO3)S(=O)(=O)c2ccccc2)c1`, the AC50 [1] is reported as 1.58 µM [falling, partial curve].
With `Cc1ccc(S(=O)(=O)N2CCCC(C(=O)NCCc3ccc4c(c3)OCO4)C2)cc1` (stereo not given) the AC50 [1] was 39.8 µM [falling, single point].
For `CCc1cc(C(=O)COc2ccccc2F)c(O)cc1O`, the AC50 [1] was 39.8 µM [falling, single point].
In the case of `Cc1ccc(NS(=O)(=O)c2ccc3oc(=O)c4ncn(C)c4c3c2)cc1C`, the AC50 [1] is reported as 20 µM [falling, partial curve].
With `COc1ccc(CCNc2ncnc3c2cnn3-c2ccc(C)c(Cl)c2)cc1` the AC50 [1] was 10 µM [falling, partial curve].
In the case of `Cc1ccc(-c2cc(-c3ccccc3)c(C#N)c(N)n2)o1`, the AC50 [2] is reported as 6.31 µM [rising, single point] and the AC50 [3] is reported as 39.8 µM [falling, single point].
For `O=C(CCC1N=C2c3ccccc3N=C(SCc3ccc(Cl)cc3)N2C1=O)NCc1cccs1` (stereo not given), the AC50 [1] was 31.6 µM [falling, single point].
In the case of `CN(C)c1ccc(CNC(=O)CN2C(=O)C3CCCCN3c3ccc(C(=O)N4CCCC4)cc32)cc1` (stereo not given), the AC50 [1] is reported as 0.00631 µM [falling, full curve, poor fit].
In the case of `c1ccc2c(c1)nc(NCC1CCCO1)c1nnnn12` (stereo not given), the AC50 [1] is reported as 0.126 µM [falling, full curve].
With `CCN1CCN(C(c2ccccc2Cl)c2c(O)cc(C)n(Cc3ccco3)c2=O)CC1` (stereo not given) the AC50 [1] was 31.6 µM [falling, single point].
With `Cn1c(=O)c2c(ncn2Cc2ccc(Cl)cc2)n(C)c1=O` the AC50 [1] was 15.8 µM [falling, partial curve].
With `Cc1ccc(S(=O)(=O)N(C)CC(=O)Nc2nc3ccccc3s2)cc1` the AC50 [1] was 12.6 µM [falling, partial curve].
With `Cc1cccc(N2CCN(C(=O)c3noc4c3CCCCC4)CC2)c1C` the AC50 [1] was 15.8 µM [falling, partial curve].
In the case of `COc1ccccc1NC(=O)c1cn(-c2ccccc2)nc1-c1ccccc1`, the AC50 [1] is reported as 1 µM [falling, full curve].
In the case of `N#Cc1nc(/C=C/c2ccc(F)cc2)oc1NCc1ccc(F)cc1`, the AC50 [1] is reported as 39.8 µM [falling, partial curve, poor fit].
In the case of `COc1ccc(C(=O)CSc2nnc(-c3cc4ccccc4cc3O)n2Cc2ccco2)cc1`, the AC50 [1] is reported as 31.6 µM [falling, partial curve].
With `O=C1CC(=O)Nc2cc(S(=O)(=O)N3CCOc4ccc(Cl)cc43)ccc2N1` the AC50 [1] was 25.1 µM [falling, single point].
For `COc1cc(CN(C)CC(=O)c2[nH]c(C)c(C(C)=O)c2C)ccc1OC(F)F`, the AC50 [1] was 20 µM [falling, single point].
With `CCCCn1nnc(NC(=O)COc2cc(C)ccc2C(C)C)n1` the AC50 [1] was 15.8 µM [falling, partial curve].
With `COc1ccc2c(CNCCc3cccs3)c(C(=O)O)n(Cc3cccc(F)c3)c2c1` the AC50 [1] was 10 µM [falling, partial curve].
With `Cc1ccc(CNC(=O)CN2CCN(Cc3ccc(F)cc3Cl)C2=O)cc1` the AC50 [1] was 20 µM [falling, partial curve].
In the case of `CCOc1ccccc1C(=O)NCc1nc2cccnc2n1Cc1ccc(C)cc1`, the AC50 [1] is reported as 0.398 µM [rising, full curve, poor fit].
In the case of `CCOc1cc(CNC(=O)c2ccc3c(c2)N(C)C(=O)C2CCCCN32)ccc1OC` (stereo not given), the AC50 [1] is reported as 6.31 µM [falling, full curve].
For `Cc1ccc(-n2ncc3c(NC4CCCCC4)ncnc32)cc1Cl`, the AC50 [1] was 20 µM [falling, partial curve, poor fit].
With `Cc1nnc(NC(=O)CCC(=O)N2CCN(CCc3ccccc3)CC2)s1` the AC50 [1] was 3.98 µM [falling, full curve].
For `COc1ccc(CNC(=O)CCCn2nc(C)c3c(C)n(-c4ccc(C)cc4)nc3c2=O)cc1OC`, the AC50 [1] was 7.94 µM [falling, partial curve].
In the case of `O=C(CSc1nccn1Cc1ccco1)Nc1cc(C(F)(F)F)ccc1Cl`, the AC50 [1] is reported as 39.8 µM [falling, single point].
In the case of `CCN(c1ccccc1)c1nnc(NC(=O)Nc2ccc(Br)c(C)c2)s1`, the AC50 [1] is reported as 25.1 µM [falling, single point].
With `CCOC(=O)C1CCCN(C(=O)Cn2sc3nc(C)cc(C)c3c2=O)C1` (stereo not given) the AC50 [1] was 15.8 µM [falling, single point] [measured here: IkB-luc green channel].
With `O=C(c1ccc2c(Cl)c3c(nc2c1)CCCC3)N1CCN(c2cccc(C(F)(F)F)c2)CC1` the AC50 [1] was 6.31 µM [falling, full curve].
In the case of `Cc1cc(C)nc(-n2nc(C)c(Sc3ccc(F)cc3)c2N)n1`, the AC50 [1] is reported as 12.6 µM [falling, partial curve, poor fit].
With `O=C(CN1C(=O)COc2ccc(S(=O)(=O)N3CCCCCC3)cc21)N1CCN(c2ccccc2F)CC1` the AC50 [1] was 20 µM [falling, single point].
In the case of `COc1ccc(Nc2cc(C(=O)NC3CCCC3)c3ccccc3n2)cc1`, the AC50 [1] is reported as 3.98 µM [falling, full curve, poor fit].
For `CCOc1ccc(Nc2oc(Cc3ccccc3)nc2C#N)cc1`, the AC50 [1] was 25.1 µM [falling, partial curve].
In the case of `CN1CCN(C(=O)Cn2ncc3c4ccccc4n(Cc4ccc(Cl)cc4)c3c2=O)CC1`, the AC50 [1] is reported as 10 µM [falling, partial curve].
With `CS(=O)(=O)N1CCc2cc(C(=O)N3CCN(c4ccccc4F)CC3)ccc21` the AC50 [1] was 20 µM [falling, single point].
In the case of `O=C(CCSCc1ccc(Cl)cc1)NCc1ccc(F)cc1Cl`, the AC50 [1] is reported as 25.1 µM [falling, single point].
In the case of `O=C(c1cc2n(n1)C(C(F)(F)F)CC(c1ccco1)N2)N1CCc2ccccc2C1` (stereo not given), the AC50 [1] is reported as 15.8 µM [falling, partial curve].
In the case of `O=C(NC1CCCCC1)c1ccc(CSc2nc3ccncc3n2Cc2ccc(F)cc2)cc1`, the AC50 [1] is reported as 15.8 µM [falling, partial curve].
In the case of `CCc1nn2c(=O)c(S(=O)(=O)Nc3ccc(Br)cc3F)c(C)nc2s1`, the AC50 [1] is reported as 39.8 µM [falling, single point].
With `c1coc(C2Nc3cccc4cccc(c34)N2)c1` the AC50 [1] was 12.6 µM [rising, partial curve] [measured here: IkB-luc green channel].
For `Cc1ccc2nc(Cl)c3cc(C(=O)NCCCN(C)Cc4ccccc4)sc3c2c1`, the AC50 [1] was 31.6 µM [falling, single point].
With `Cc1ccc2c(c1)c1c3n2CCN(C(=O)c2ccc(C(F)(F)F)cc2)C3CCC1` (stereo not given) the AC50 [1] was 10 µM [falling, partial curve].
In the case of `CC1=C(C(=O)OCc2ccc(C)cc2)C(c2cccc(F)c2F)CC(=O)N1` (stereo not given), the AC50 [1] is reported as 3.16 µM [falling, full curve].
In the case of `COc1ccc(CCNC(=O)c2cc3c(=O)oc4ccc(C)cc4c3s2)cc1OC`, the AC50 [1] is reported as 3.16 µM [rising, full curve].
For `COc1ccc(OCC(=O)Nc2ccc3nn(-c4ccc(OC)cc4)nc3c2)cc1`, the AC50 [1] was 25.1 µM [rising, partial curve].
In the case of `CCCCCn1c(CNC(=O)c2ccccc2)nc2ccccc21`, the AC50 [1] is reported as 6.31 µM [falling, single point].
For `Cc1cc(C)c(S(=O)(=O)N2CCN(Cc3ccc4c(c3)OCO4)CC2)cc1C`, the AC50 [1] was 25.1 µM [falling, partial curve].
In the case of `Cc1ccc(C)c(N(C)C(=O)Cc2c(C(=O)O)[nH]c3ccc(Cl)cc23)c1`, the AC50 [1] is reported as 15.8 µM [falling, partial curve].
In the case of `COc1ccc(CN2CCN(c3ccccn3)CC2)cc1OCc1ccccc1`, the AC50 [1] is reported as 15.8 µM [falling, partial curve].
With `COc1ccccc1-c1nn2c(=O)cc(CN3CCN(C(=O)/C=C/c4ccccc4)CC3)nc2s1` the AC50 [1] was 12.6 µM [falling, partial curve].
For `CN(C)c1ccc(Nc2nc3ccccc3n3nnnc23)cc1`, the AC50 [1] was 1 µM [falling, partial curve].
With `COc1ccccc1CNC(=O)CSc1nc(=O)[nH]c2c1CCC2` the AC50 [1] was 20 µM [falling, partial curve].
For `CCCC1=Nc2cc(C(=O)NCCOC)ccc2Sc2ccccc21`, the AC50 [2] was 3.98 µM [rising, full curve] and the AC50 [3] was 3.16 µM [rising, single point].
For `O=C(Nc1nnc(C2CCCCC2)s1)c1ccc(Br)s1`, the AC50 [1] was 0.01 µM [falling, full curve].
With `Cc1cccc(CSc2ccc(-c3cccs3)nn2)c1` the AC50 [1] was 1.58 µM [rising, full curve].
